No constants are given. Whether binding was seen depends on the method and setting. In cells and extracts the contact can be indirect. These calls come from enrichment with a bait or labelling near it, and not all partners need be listed.

Chains of the proteins cited; added tags and fusions are not shown. Residues count along the entry.
UniProt Q10589, residues 1-161: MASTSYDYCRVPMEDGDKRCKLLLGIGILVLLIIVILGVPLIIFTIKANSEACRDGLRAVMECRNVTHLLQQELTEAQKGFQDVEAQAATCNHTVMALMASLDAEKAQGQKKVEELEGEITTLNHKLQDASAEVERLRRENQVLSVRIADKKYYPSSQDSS
UniProt P27824, residues 21-592: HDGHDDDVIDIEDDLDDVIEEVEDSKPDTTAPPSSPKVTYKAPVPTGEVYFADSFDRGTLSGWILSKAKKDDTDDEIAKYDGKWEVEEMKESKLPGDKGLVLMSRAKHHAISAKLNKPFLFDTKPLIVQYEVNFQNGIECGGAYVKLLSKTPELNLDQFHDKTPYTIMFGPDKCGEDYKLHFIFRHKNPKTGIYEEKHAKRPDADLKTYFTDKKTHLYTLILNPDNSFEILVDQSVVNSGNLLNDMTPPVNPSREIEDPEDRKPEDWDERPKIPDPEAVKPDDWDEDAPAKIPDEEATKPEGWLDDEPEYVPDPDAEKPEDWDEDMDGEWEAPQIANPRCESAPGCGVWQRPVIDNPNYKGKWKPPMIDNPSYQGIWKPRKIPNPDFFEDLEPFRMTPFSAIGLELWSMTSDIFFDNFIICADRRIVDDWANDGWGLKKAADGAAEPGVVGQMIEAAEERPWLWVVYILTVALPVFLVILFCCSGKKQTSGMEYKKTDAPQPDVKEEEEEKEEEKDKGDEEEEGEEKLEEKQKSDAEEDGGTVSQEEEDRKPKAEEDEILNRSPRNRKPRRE

In PMC10199885 one finds binding data, which are given here for 1 substance.

The assay has as its target HA-CD317 (expressed in HEK293T cells) (human) (UniProt Q10589). Nature of the assay: affinity purification with mass spectrometry; lysates of HEK293T cells expressing HA-CD317, IP with anti-HA antibody, LC-MS/MS of the IP samples.

Take “Calnexin (CNX), endogenous in HEK293T cells (from UniProt P27824 21-592)”: the binding entry is recorded as “binds”.
